Our source for the binding values is patent publication US20030166056A1, “Transmembrane protein as a downstream target of neurotrophin and ephrin receptor tyrosine kinases, DNA encoding same and monoclonal antibodies thereto” (New York University, priority 2000, published 2003).

By UniProt entry, the sequences of proteins in these tests, tags left out. Where a name states a change or a piece, a line headed by the entry shows the natural chain unless it says otherwise.
UniProt P0A7C2: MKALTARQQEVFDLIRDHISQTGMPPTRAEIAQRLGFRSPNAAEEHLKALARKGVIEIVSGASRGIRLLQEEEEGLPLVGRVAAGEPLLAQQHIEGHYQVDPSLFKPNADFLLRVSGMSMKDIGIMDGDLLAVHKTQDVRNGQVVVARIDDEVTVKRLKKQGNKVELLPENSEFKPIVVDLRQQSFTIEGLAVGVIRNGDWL
UniProt P07174: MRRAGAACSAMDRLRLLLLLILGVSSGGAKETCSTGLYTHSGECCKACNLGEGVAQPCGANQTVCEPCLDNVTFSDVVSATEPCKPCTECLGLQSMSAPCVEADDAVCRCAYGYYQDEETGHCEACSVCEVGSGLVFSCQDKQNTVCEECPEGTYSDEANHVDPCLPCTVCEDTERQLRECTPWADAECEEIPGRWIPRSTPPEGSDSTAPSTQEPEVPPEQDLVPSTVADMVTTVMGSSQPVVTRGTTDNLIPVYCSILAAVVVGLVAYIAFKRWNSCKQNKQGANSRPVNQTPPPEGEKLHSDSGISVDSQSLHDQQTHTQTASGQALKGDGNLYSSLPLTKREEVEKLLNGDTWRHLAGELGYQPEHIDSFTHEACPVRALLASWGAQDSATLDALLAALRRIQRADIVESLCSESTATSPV

No constants are given. Whether binding was seen depends on the method and setting. Some entries that bind do so weakly or less than the wild type.

The target in experiment [1] is T1, entire cytoplasmic region of rat p75 fused to the LexA DNA binding domain (two-hybrid bait) (rat) (UniProt P0A7C2+P07174). Description: yeast two-hybrid.
The target of experiment [2] is T1, entire cytoplasmic region of rat p75 fused to the LexA DNA binding domain (two-hybrid bait) (rat). Description: yeast two-hybrid screen (LexA system), survival in the absence of leucine.

B1: carboxy terminal 250 amino acids of ARMS (two-hybrid library clone) (protein, not shown: large carriers)
chain: DEDESGTGRVQITPHCSKMIRTKRLKAKQRECASPQEHSAEPIRTFIKAKEYLSDALLDKKDSSDSGVRSNESSPNHSLHNEAADDSQLEKANLIELEDEGHSGKRGMPHSLSGLQDPIIARMSICSEDKKSPSECSLIASSPEESWPACQKAYNLNRTPSTVTLNNNTAPTNRANQNFDEIEGIRETSQVILRPGPSPNPTAVQNENLKSMAHKRSQRSSYTRLSKDASELHAASSESTGFGEERESIL
B1: the binding result in experiment [1] and in experiment [2] was “binds” each time.
